Values from PubChem BioAssay AID720505 (Drosophila RNAi Screening Center, 2013)
In all, the deposit lists about 20,000 reagents; below is a random part of those that have a named target and a result. Over the whole deposit, about 2,100 (10%) are marked active. 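Raw plate signals without normalisation; calls rest on control-based scores that were not deposited; replicate 2 separates called from uncalled poorly.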 Reagent sequences are not shown. The record does not give: the amount of reagent, the time to read-out.

- Screen: 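Knock-downs that reduce calcium influx once internal stores are emptied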 (primary screen)
- Cell system: Drosophila S2R+ cells
- Reagent: long dsRNA against Drosophila genes
- Treatment: thapsigargin (2 µM) in calcium-free buffer to empty internal stores, then 2 mM calcium added back
- Detection: 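Stores emptied by 2 µM thapsigargin without calcium, then 2 mM calcium re-added; fluo-4 fluorescence followed by FLIPR in 384-well plates, per-well averaged endpoint, raw; two screen passes, some wells retested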
- Reading the numbers: calcium signal: higher = more calcium entry after store depletion
- Active means: 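Knock-downs counted as hits when calcium entry dropped relative to STIM1 positive and Rho1 negative controls present on each plate; roughly 1500 genes called, with reductions of differing size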
- Meaning of the calls: active = called as lowering calcium entry; inactive = not called

Echs1 [DRSC06999] showed calcium signal, replicate 1 = 108; calcium signal, replicate 2 = 198; inactive. Depletion of Cpr67Fa1 [DRSC10932] resulted in: calcium signal, replicate 1 = 86; calcium signal, replicate 2 = 129; inactive. Silencing of Ac78C [DRSC11602] resulted in: calcium signal, replicate 1 = 91.7; calcium signal, replicate 2 = 112; active. After knock-down of Ac78C [DRSC11619], the record shows calcium signal, replicate 1 = 67.2; calcium signal, replicate 2 = 95; active. CG7560 [DRSC10879] gave calcium signal, replicate 1 = 107; calcium signal, replicate 2 = 91.7; inactive. Knock-down of CG34029 [DRSC03909] resulted in: calcium signal, replicate 1 = 84.3; calcium signal, replicate 2 = 6362; inactive.

CG32095 [DRSC22615] showed calcium signal, replicate 1 = 85.4; calcium signal, replicate 2 = 191; inactive. With knock-down of Doc1 [DRSC11146] the results were calcium signal, replicate 1 = 96.1; calcium signal, replicate 2 = 84.6; inactive. With knock-down of Or59c [DRSC04633] the results were calcium signal, replicate 1 = 127; calcium signal, replicate 2 = 166; inactive. Silencing of Shark [DRSC07680] came out at: calcium signal, replicate 1 = 153; calcium signal, replicate 2 = 77.9; inactive. Silencing of eEFSec [DRSC04571] gave: calcium signal, replicate 1 = 127; calcium signal, replicate 2 = 96.2; inactive. With knock-down of CG31717 [DRSC01121] the results were calcium signal, replicate 1 = 150; calcium signal, replicate 2 = 89.3; inactive.

Knock-down of CG13223 [DRSC06344] resulted in: calcium signal, replicate 1 = 81.6; calcium signal, replicate 2 = 147; inactive. Against CG9101 [DRSC20152], the entry reads calcium signal, replicate 1 = 92.7; calcium signal, replicate 2 = 96; inactive. nerfin-2 [DRSC14547] gave calcium signal, replicate 1 = 112; calcium signal, replicate 2 = 75.2; inactive. After knock-down of Dus3 [DRSC02059] the results were calcium signal, replicate 1 = 181; calcium signal, replicate 2 = 79.7; inactive. For lab [DRSC12627], the values are calcium signal, replicate 1 = 167; calcium signal, replicate 2 = 212; inactive. Against twin [DRSC15259], the entry reads calcium signal, replicate 1 = 165; calcium signal, replicate 2 = 164; inactive.

twin [DRSC15831] showed calcium signal, replicate 1 = 181; calcium signal, replicate 2 = 91.4; inactive. With knock-down of twin [DRSC21363], the record shows calcium signal, replicate 1 = 138; calcium signal, replicate 2 = 94; inactive. Knock-down of CG34164 [DRSC02837] came out at: calcium signal, replicate 1 = 87; calcium signal, replicate 2 = 112; inactive. After knock-down of CG15547 [DRSC15085], the screen gave calcium signal, replicate 1 = 179; calcium signal, replicate 2 = 147; inactive. Against Fs [DRSC06258] the deposit lists calcium signal, replicate 1 = 96.7; calcium signal, replicate 2 = 109; inactive. Fs [DRSC06259] scored calcium signal, replicate 1 = 122; calcium signal, replicate 2 = 176; inactive.

Knock-down of CG31371 [DRSC15079] resulted in: calcium signal, replicate 1 = 136; calcium signal, replicate 2 = 116; inactive. Knock-down of dre4 [DRSC08714] came out at: calcium signal, replicate 1 = 92.9; calcium signal, replicate 2 = 113; inactive. With knock-down of CARPA [DRSC17905], the record shows calcium signal, replicate 1 = 67.8; calcium signal, replicate 2 = 264; active. With knock-down of CARPA [DRSC21633], the record shows calcium signal, replicate 1 = 127; calcium signal, replicate 2 = 108; inactive.
